{"source": "the supplement of paper PMC7666118", "note": "The list shows a part of the results."}
{"compound": "COc1ccc(Cn2ccc3cc(C)c(C(=O)NO)cc32)cc1", "assay": "dose-dependent thermal stabilisation call (2D-TPP, DLPTP, 10% FDR) (binary (1 = stabilised)); higher = stabilised by the compound", "settings": "system: HL-60 intact cells; concentration range 0.04-10 µM", "method": "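2D thermal proteome profiling in intact HL-60 cells treated with BRD-3811 (0, 0.04, 0.29, 2, 10 uM) for 90 min at 37 C, then heated 3 min at one of 12 temperatures (42-63.9 C). Soluble protein was quantified by TMT10 MS. The value is the DLPTP call of the paper: dose-dependent thermal stabilisation over all temperatures at 10% FDR (F-test of a dose-response against a flat model); one experiment, one call per tested protein.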"}
{"target": "PIN4 (UniProt Q9Y237)", "dose-dependent thermal stabilisation call": "inactive: 0"}
{"target": "PCM1 (UniProt Q15154)", "dose-dependent thermal stabilisation call": "inactive: 0"}
{"target": "PGLS (UniProt O95336)", "dose-dependent thermal stabilisation call": "inactive: 0"}
{"target": "PITPNA (UniProt Q00169)", "dose-dependent thermal stabilisation call": "inactive: 0"}
{"target": "PFDN2 (UniProt Q9UHV9)", "dose-dependent thermal stabilisation call": "inactive: 0"}
{"target": "PIGN (UniProt O95427)", "dose-dependent thermal stabilisation call": "inactive: 0"}
{"target": "PARVG (UniProt Q9HBI0)", "dose-dependent thermal stabilisation call": "inactive: 0"}
{"target": "PDCD6IP (UniProt Q8WUM4)", "dose-dependent thermal stabilisation call": "inactive: 0"}
{"target": "PDCD4 (UniProt Q53EL6)", "dose-dependent thermal stabilisation call": "inactive: 0"}
{"target": "PARS2 (UniProt Q7L3T8)", "dose-dependent thermal stabilisation call": "inactive: 0"}
{"target": "PANK4 (UniProt Q9NVE7)", "dose-dependent thermal stabilisation call": "inactive: 0"}
{"target": "PIGA (UniProt P37287)", "dose-dependent thermal stabilisation call": "inactive: 0"}
{"target": "PLEK (UniProt P08567)", "dose-dependent thermal stabilisation call": "inactive: 0"}
{"target": "PGM2 (UniProt Q96G03)", "dose-dependent thermal stabilisation call": "inactive: 0"}
{"target": "PGRMC2 (UniProt O15173)", "dose-dependent thermal stabilisation call": "inactive: 0"}
{"target": "PANK1 (UniProt Q8TE04)", "dose-dependent thermal stabilisation call": "inactive: 0"}
{"target": "OSTC (UniProt Q9NRP0)", "dose-dependent thermal stabilisation call": "inactive: 0"}
{"target": "P2RY2 (UniProt P41231)", "dose-dependent thermal stabilisation call": "inactive: 0"}
{"target": "PHF19 (UniProt Q5T6S3)", "dose-dependent thermal stabilisation call": "inactive: 0"}
{"target": "PEX13 (UniProt Q92968)", "dose-dependent thermal stabilisation call": "inactive: 0"}
{"target": "PFKFB3 (UniProt Q16875)", "dose-dependent thermal stabilisation call": "inactive: 0"}
{"target": "PAAF1 (UniProt Q9BRP4)", "dose-dependent thermal stabilisation call": "inactive: 0"}
{"target": "PLD3 (UniProt Q8IV08)", "dose-dependent thermal stabilisation call": "inactive: 0"}
{"target": "PDE6D (UniProt O43924)", "dose-dependent thermal stabilisation call": "inactive: 0"}
{"target": "PKN2 (UniProt Q16513)", "dose-dependent thermal stabilisation call": "inactive: 0"}
{"target": "OSBPL3 (UniProt Q9H4L5)", "dose-dependent thermal stabilisation call": "inactive: 0"}
{"target": "PLEKHO2 (UniProt Q8TD55)", "dose-dependent thermal stabilisation call": "inactive: 0"}
{"target": "PLSCR1 (UniProt O15162)", "dose-dependent thermal stabilisation call": "inactive: 0"}
{"target": "PCYT1A (UniProt P49585)", "dose-dependent thermal stabilisation call": "inactive: 0"}
{"target": "PKM2 (UniProt P14618)", "dose-dependent thermal stabilisation call": "inactive: 0"}
{"target": "OSBPL8 (UniProt Q9BZF1)", "dose-dependent thermal stabilisation call": "inactive: 0"}
{"target": "PLAU (UniProt P00749)", "dose-dependent thermal stabilisation call": "inactive: 0"}
{"target": "PCBD1 (UniProt P61457)", "dose-dependent thermal stabilisation call": "inactive: 0"}
{"target": "PANX1 (UniProt Q96RD7)", "dose-dependent thermal stabilisation call": "inactive: 0"}
{"target": "OSBPL5 (UniProt Q9H0X9)", "dose-dependent thermal stabilisation call": "inactive: 0"}
{"target": "PCID2 (UniProt Q5JVF3)", "dose-dependent thermal stabilisation call": "inactive: 0"}
{"target": "PARP2 (UniProt Q9UGN5)", "dose-dependent thermal stabilisation call": "inactive: 0"}
{"target": "PLA2G12A (UniProt Q9BZM1)", "dose-dependent thermal stabilisation call": "inactive: 0"}
{"target": "PDPR (UniProt Q8NCN5)", "dose-dependent thermal stabilisation call": "inactive: 0"}
{"target": "PDSS2 (UniProt Q86YH6)", "dose-dependent thermal stabilisation call": "inactive: 0"}
